Results are given in words; binding and its absence hold for the method and conditions named. In cells and extracts the contact can be indirect. Some results given as binding are weak or reduced against the parent protein; the word gives no strength.
Target: HA-tagged RIP (UniProt Q13546)
Assay: co-immunoprecipitation, HA-RIP and Flag-Apop3 mutant co-transfected in Phoenix-A (293 T) cells, anti-Flag immunoblot

Amino acid sequences for entries named in this document (tags omitted). A change or cut given only in a name is not applied to a line headed by its entry.
UniProt Q13546: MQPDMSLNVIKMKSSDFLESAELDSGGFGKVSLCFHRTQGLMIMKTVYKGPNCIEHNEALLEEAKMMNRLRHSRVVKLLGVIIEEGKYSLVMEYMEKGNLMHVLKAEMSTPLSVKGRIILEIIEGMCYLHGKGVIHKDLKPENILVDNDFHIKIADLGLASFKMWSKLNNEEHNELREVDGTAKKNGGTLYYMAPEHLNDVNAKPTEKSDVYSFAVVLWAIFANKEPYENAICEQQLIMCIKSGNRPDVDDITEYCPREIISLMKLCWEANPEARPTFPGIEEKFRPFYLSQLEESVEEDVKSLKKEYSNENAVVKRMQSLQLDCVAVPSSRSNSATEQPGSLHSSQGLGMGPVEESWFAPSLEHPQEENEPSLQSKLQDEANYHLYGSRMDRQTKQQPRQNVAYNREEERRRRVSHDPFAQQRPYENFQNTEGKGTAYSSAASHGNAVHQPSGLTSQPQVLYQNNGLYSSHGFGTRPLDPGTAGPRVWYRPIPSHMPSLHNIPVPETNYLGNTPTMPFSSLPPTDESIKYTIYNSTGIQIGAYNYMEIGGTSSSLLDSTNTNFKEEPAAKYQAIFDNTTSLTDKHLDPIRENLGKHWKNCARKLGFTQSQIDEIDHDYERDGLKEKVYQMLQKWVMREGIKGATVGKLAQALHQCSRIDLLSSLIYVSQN
UniProt Q9Y572: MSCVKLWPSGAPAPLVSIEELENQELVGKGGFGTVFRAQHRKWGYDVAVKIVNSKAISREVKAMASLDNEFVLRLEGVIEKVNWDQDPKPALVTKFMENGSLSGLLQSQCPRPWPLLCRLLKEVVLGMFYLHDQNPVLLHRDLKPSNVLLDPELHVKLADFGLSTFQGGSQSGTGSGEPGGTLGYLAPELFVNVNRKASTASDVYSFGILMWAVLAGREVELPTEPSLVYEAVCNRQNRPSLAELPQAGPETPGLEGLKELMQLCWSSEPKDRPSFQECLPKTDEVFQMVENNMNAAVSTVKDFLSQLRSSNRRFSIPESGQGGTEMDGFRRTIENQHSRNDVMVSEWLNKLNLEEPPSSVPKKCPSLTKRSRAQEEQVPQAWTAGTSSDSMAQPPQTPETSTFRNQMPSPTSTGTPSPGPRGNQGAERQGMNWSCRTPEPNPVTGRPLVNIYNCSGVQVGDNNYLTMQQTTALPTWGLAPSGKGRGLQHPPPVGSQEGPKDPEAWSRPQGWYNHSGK

binding: binds
Substance: Flag-tagged Apop3(82-518) (from UniProt Q9Y572 82-518) (enzyme)

— patent US7223850
